Source: paper PMC10371797
No constants are given. Whether binding was seen depends on the method and setting. In cells and extracts the contact can be indirect. Here binding means that the protein was enriched with, or labelled near, the bait; the list need not be complete.

Amino acid sequences for entries named in this document (tags omitted).
UniProt O75152: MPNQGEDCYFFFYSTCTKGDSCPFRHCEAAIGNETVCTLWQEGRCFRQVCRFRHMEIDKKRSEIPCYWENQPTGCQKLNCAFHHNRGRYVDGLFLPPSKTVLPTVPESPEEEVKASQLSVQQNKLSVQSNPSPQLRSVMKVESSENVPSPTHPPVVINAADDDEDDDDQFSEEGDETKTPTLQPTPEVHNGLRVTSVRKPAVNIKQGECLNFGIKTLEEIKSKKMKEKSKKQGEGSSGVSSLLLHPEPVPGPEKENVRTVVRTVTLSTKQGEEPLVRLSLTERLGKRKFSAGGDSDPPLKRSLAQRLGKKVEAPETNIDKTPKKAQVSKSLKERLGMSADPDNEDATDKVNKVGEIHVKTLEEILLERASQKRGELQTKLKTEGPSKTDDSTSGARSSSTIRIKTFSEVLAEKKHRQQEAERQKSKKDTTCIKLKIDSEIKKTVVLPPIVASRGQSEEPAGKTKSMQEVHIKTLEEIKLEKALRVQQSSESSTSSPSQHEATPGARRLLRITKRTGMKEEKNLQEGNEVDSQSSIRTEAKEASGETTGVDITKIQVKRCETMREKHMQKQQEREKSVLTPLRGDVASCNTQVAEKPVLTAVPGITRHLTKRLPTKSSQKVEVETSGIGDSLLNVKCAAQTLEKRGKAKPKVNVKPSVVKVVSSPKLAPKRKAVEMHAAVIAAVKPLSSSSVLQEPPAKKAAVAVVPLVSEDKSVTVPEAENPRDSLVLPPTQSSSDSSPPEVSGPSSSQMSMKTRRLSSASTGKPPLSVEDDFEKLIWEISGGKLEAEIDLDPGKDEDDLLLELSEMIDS
UniProt Q6NZF1: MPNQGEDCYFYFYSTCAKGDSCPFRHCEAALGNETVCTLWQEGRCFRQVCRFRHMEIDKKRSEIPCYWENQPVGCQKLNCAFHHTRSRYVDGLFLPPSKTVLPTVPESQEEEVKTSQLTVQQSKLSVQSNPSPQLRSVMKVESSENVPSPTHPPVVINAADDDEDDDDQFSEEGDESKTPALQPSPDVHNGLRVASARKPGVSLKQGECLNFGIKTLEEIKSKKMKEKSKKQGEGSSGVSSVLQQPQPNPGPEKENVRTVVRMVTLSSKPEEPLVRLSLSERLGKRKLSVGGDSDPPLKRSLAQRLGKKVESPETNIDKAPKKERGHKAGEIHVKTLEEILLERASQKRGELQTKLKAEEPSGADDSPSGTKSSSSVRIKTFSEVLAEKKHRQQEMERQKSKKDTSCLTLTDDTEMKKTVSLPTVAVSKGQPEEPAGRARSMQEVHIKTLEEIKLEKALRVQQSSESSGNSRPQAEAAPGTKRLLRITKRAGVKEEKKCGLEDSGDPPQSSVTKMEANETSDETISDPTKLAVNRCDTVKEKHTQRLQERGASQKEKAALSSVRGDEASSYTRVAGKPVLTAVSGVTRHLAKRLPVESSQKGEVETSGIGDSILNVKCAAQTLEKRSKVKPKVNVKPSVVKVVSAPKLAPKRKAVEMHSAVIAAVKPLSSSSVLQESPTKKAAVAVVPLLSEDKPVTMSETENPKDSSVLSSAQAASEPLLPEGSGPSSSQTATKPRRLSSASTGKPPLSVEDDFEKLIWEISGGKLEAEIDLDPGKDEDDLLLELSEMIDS
UniProt Q13838: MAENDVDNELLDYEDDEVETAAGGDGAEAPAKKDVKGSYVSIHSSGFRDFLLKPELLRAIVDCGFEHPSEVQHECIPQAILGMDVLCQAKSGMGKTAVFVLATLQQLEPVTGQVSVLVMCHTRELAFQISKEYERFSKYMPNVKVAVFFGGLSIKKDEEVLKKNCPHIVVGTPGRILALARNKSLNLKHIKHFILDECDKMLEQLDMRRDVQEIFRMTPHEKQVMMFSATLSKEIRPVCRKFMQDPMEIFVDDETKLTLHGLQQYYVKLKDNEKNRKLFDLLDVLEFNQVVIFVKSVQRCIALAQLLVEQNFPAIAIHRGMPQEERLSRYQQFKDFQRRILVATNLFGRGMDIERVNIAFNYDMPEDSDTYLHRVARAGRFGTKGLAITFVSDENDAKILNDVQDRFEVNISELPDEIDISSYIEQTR
UniProt P38919: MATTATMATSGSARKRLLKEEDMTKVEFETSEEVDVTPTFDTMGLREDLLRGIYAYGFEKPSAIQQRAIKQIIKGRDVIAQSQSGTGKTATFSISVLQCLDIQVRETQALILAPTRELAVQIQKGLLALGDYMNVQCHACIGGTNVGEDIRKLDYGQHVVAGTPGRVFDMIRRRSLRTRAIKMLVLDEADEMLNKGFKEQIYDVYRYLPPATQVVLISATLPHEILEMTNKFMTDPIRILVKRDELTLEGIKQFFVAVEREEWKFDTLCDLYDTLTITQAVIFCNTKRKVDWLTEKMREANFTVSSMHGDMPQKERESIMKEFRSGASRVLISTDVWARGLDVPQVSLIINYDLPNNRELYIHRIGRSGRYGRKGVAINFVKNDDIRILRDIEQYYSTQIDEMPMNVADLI
UniProt Q91VC3: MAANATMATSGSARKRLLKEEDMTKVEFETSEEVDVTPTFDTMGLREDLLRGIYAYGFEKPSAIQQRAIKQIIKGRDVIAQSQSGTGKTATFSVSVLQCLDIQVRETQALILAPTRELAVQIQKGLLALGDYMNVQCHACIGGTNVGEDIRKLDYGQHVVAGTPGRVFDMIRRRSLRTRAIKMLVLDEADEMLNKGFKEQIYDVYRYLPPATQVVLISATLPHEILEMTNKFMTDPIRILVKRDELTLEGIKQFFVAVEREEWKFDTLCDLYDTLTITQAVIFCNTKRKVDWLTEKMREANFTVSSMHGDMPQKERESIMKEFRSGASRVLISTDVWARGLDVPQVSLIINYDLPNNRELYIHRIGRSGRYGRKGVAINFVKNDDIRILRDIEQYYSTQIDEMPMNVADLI
UniProt P11940: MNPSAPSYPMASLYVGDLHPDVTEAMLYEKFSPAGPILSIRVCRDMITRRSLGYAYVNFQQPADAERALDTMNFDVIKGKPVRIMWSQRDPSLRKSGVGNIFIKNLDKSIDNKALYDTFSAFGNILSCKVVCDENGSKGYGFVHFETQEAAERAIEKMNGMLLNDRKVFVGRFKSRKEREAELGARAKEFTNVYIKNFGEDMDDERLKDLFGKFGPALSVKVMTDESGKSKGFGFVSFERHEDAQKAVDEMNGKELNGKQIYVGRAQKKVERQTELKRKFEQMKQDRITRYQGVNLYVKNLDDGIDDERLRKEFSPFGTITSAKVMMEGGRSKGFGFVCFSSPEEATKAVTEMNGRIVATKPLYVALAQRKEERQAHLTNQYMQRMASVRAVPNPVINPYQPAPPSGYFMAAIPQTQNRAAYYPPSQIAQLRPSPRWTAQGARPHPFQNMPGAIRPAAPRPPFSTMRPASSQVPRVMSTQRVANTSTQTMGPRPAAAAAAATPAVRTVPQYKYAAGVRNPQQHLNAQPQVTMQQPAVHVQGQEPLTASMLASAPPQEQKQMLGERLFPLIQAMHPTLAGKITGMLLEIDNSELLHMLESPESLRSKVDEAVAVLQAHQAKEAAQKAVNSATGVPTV

Tests used:
[1] = target: GFP-ZC3H11A(wt) (human) (UniProt O75152); assay: affinity purification with mass spectrometry; GFP, GFP-ZC3H11A(wt) or GFP-ZC3H11A(dZF) as baits in transfected HeLa cells; lysate with benzonase; GFP-Trap magnetic beads, 1 h at 4 °C; LC-MS/MS
[2] = target: ZC3H11A, endogenous, human HeLa cells (human (endogenous in HeLa)) (UniProt O75152); assay: affinity purification with mass spectrometry; anti-ZC3H11A (heavy) against anti-IgG (light) immunoprecipitation from SILAC-labelled HeLa lysates treated with nuclease; Dynabeads Protein G; LC-MS/MS
[3] = target: ZC3H11A, endogenous, mouse embryonic stem cells (mouse (endogenous in mESCs)) (UniProt Q6NZF1); assay: affinity purification with mass spectrometry; anti-ZC3H11A and anti-IgG immunoprecipitation from mouse embryonic stem cell lysates treated with benzonase; mass spectrometry

Substance | binding [1] | further results
DDX39B, endogenous, HeLa cells (from UniProt Q13838 1-428) | binds | –
EIF4A3, endogenous, HeLa cells (from UniProt P38919 1-411) | – | binding [2]: binds
EIF4A3, endogenous, mouse embryonic stem cells (from UniProt Q91VC3 1-411) | – | binding [3]: binds
PABPC1, endogenous, HeLa cells (from UniProt P11940 1-636) | binds | –
